The list shows a part of the results.
Tests used:
Assay in all cases: glycan array binding signal (z-score within array); higher = stronger binding
Details in all cases: glycan notation: IUPAC condensed, linker removed
[1] = target: GlcNAc(b1-2)Man(a1-3)[GlcNAc(b1-2)Man(a1-6)]Man(b1-4)GlcNAc(b1-4)GlcNAc
Method in brief: (§1)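 Glycan array data came from 3228 arrays in the Consortium for Functional Glycomics database, and only arrays with an available protein sequence were kept. Glycan names were put into IUPAC-condensed notation, and columns mapping to the same glycan were averaged. The binding signal is a within-array Z-score, averaged across arrays of one protein sequence run at different concentrations or buffers and across linkers. A negative Z-score can be read as non-binding.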

[2] = target: GlcNAc(b1-3)Gal
Method in brief: as §1

[3] = target: GlcNAc(b1-3)Gal(b1-3)GalNAc
Method in brief: as §1

[4] = target: GlcNAc(b1-3)Gal(b1-4)Glc
Method in brief: as §1

[5] = target: GlcNAc(b1-3)Gal(b1-4)GlcNAc
Method in brief: as §1

[6] = target: GlcNAc(b1-3)Gal(b1-4)GlcNAc(b1-3)Gal(b1-4)GlcNAc
Method in brief: as §1

[7] = target: GlcNAc(b1-3)GalNAc
Method in brief: as §1

[8] = target: GlcNAc(b1-3)[GlcNAc(b1-4)][GlcNAc(b1-6)]GlcNAc
Method in brief: as §1

[9] = target: GlcNAc(b1-3)[GlcNAc(b1-6)]Gal(b1-4)GlcNAc
Method in brief: as §1

[10] = target: GlcNAc(b1-3)[GlcNAc(b1-6)]GlcNAc
Method in brief: as §1

[11] = target: GlcNAc(b1-4)Gal(b1-4)GlcNAc
Method in brief: as §1

[12] = target: GlcNAc(b1-4)GlcNAc(b1-4)GlcNAc
Method in brief: as §1

[13] = target: GlcNAc(b1-4)GlcNAc(b1-4)GlcNAc(b1-4)GlcNAc(b1-4)GlcNAc
Method in brief: as §1

[14] = target: GlcNAc(b1-4)GlcNAc(b1-4)GlcNAc(b1-4)GlcNAc(b1-4)GlcNAc(b1-4)GlcNAc
Method in brief: as §1

[15] = target: GlcNAc(b1-4)[GlcNAc(b1-6)]GalNAc
Method in brief: as §1

[16] = target: GlcNAc(b1-6)Gal(b1-4)GlcNAc
Method in brief: as §1

[17] = target: GlcNAc(b1-6)GalNAc
Method in brief: as §1

[18] = target: Kdn(a2-3)Gal(b1-3)GlcNAc
Method in brief: as §1

[19] = target: Kdn(a2-3)Gal(b1-4)GlcNAc
Method in brief: as §1

[20] = target: Man(a1-2)Man(a1-2)Man(a1-3)Man
Method in brief: as §1

[21] = target: Man(a1-2)Man(a1-2)Man(a1-3)[Man(a1-2)Man(a1-3)[Man(a1-2)Man(a1-6)]Man(a1-6)]Man(b1-4)GlcNAc(b1-4)GlcNAc
Method in brief: as §1

[22] = target: Man(a1-2)Man(a1-2)Man(a1-3)[Man(a1-2)Man(a1-6)[Man(a1-3)]Man(a1-6)]Man(b1-4)GlcNAc(b1-4)GlcNAc
Method in brief: as §1

[23] = target: Man(a1-2)Man(a1-2)Man(a1-6)[Man(a1-3)]Man
Method in brief: as §1

[24] = target: Man(a1-2)Man(a1-3)Man
Method in brief: as §1

[25] = target: Man(a1-2)Man(a1-3)[Man(a1-2)Man(a1-6)]Man
Method in brief: as §1

[26] = target: Man(a1-2)Man(a1-3)[Man(a1-3)[Man(a1-6)]Man(a1-6)]Man(b1-4)GlcNAc(b1-4)GlcNAc
Method in brief: as §1

[27] = target: Man(a1-2)Man(a1-3)[Man(a1-6)]Man(a1-6)[Man(a1-2)Man(a1-3)]Man(b1-4)GlcNAc(b1-4)GlcNAc
Method in brief: as §1

[28] = target: Man(a1-3)[Man(a1-6)]Man
Method in brief: as §1

[29] = target: Man(a1-3)[Man(a1-6)]Man(a1-6)[Man(a1-3)]Man(b1-4)GlcNAc(b1-4)GlcNAc
Method in brief: as §1

[30] = target: Man(a1-3)[Man(a1-6)]Man(b1-4)GlcNAc(b1-4)GlcNAc
Method in brief: as §1

[31] = target: Man(b1-4)GlcNAc
Method in brief: as §1

[32] = target: Neu5Ac(a2-3)Gal
Method in brief: as §1

[33] = target: Neu5Ac(a2-3)Gal(b1-3)GalNAc
Method in brief: as §1

[34] = target: Neu5Ac(a2-3)Gal(b1-3)GalNAc(b1-3)Gal(a1-4)Gal(b1-4)Glc
Method in brief: as §1

[35] = target: Neu5Ac(a2-3)Gal(b1-3)GalNAc(b1-4)[Neu5Ac(a2-3)]Gal(b1-4)Glc
Method in brief: as §1

[36] = target: Neu5Ac(a2-3)Gal(b1-3)GalNAc6S
Method in brief: as §1

[37] = target: Neu5Ac(a2-3)Gal(b1-3)GlcNAc
Method in brief: as §1

[38] = target: Neu5Ac(a2-3)Gal(b1-3)GlcNAc(b1-3)Gal(b1-3)GlcNAc
Method in brief: as §1

[39] = target: Neu5Ac(a2-3)Gal(b1-3)GlcNAc(b1-3)Gal(b1-4)GlcNAc
Method in brief: as §1

[40] = target: Neu5Ac(a2-3)Gal(b1-3)GlcNAc6S
Method in brief: as §1

[41] = target: Neu5Ac(a2-3)Gal(b1-3)[Fuc(a1-4)]GlcNAc
Method in brief: as §1

[42] = target: Neu5Ac(a2-3)Gal(b1-3)[Fuc(a1-4)]GlcNAc(b1-3)Gal(b1-4)[Fuc(a1-3)]GlcNAc
Method in brief: as §1

[43] = target: Neu5Ac(a2-3)Gal(b1-3)[Neu5Ac(a2-3)Gal(b1-4)]GlcNAc
Method in brief: as §1

[44] = target: Neu5Ac(a2-3)Gal(b1-3)[Neu5Ac(a2-6)]GalNAc
Method in brief: as §1

[45] = target: Neu5Ac(a2-3)Gal(b1-4)Glc
Method in brief: as §1

[46] = target: Neu5Ac(a2-3)Gal(b1-4)GlcNAc
Method in brief: as §1

[47] = target: Neu5Ac(a2-3)Gal(b1-4)GlcNAc(b1-3)Gal(b1-3)GlcNAc
Method in brief: as §1

[48] = target: Neu5Ac(a2-3)Gal(b1-4)GlcNAc(b1-3)Gal(b1-4)GlcNAc
Method in brief: as §1

[49] = target: Neu5Ac(a2-3)Gal(b1-4)GlcNAc(b1-3)Gal(b1-4)GlcNAc(b1-3)Gal(b1-4)GlcNAc
Method in brief: as §1

[50] = target: Neu5Ac(a2-3)Gal(b1-4)GlcNAc(b1-3)Gal(b1-4)[Fuc(a1-3)]GlcNAc
Method in brief: as §1

[51] = target: Neu5Ac(a2-3)Gal(b1-4)GlcNAc(b1-6)[Gal(b1-3)]GalNAc
Method in brief: as §1

[52] = target: Neu5Ac(a2-3)Gal(b1-4)GlcNAc6S
Method in brief: as §1

[53] = target: Neu5Ac(a2-3)Gal(b1-4)[Fuc(a1-3)]GlcNAc
Method in brief: as §1

[54] = target: Neu5Ac(a2-3)Gal(b1-4)[Fuc(a1-3)]GlcNAc(b1-3)Gal
Method in brief: as §1

[55] = target: Neu5Ac(a2-3)Gal(b1-4)[Fuc(a1-3)]GlcNAc(b1-3)Gal(b1-4)GlcNAc
Method in brief: as §1

[56] = target: Neu5Ac(a2-3)Gal(b1-4)[Fuc(a1-3)]GlcNAc(b1-3)Gal(b1-4)[Fuc(a1-3)]GlcNAc(b1-3)Gal(b1-4)[Fuc(a1-3)]GlcNAc
Method in brief: as §1

[57] = target: Neu5Ac(a2-3)Gal(b1-4)[Fuc(a1-3)]GlcNAc6S
Method in brief: as §1

[58] = target: Neu5Ac(a2-3)Gal6S(b1-4)GlcNAc
Method in brief: as §1

[59] = target: Neu5Ac(a2-3)Gal6S(b1-4)[Fuc(a1-3)]GlcNAc
Method in brief: as §1

[60] = target: Neu5Ac(a2-3)GalNAc
Method in brief: as §1

B1: KCR (Mus musculus), P70194 (protein)
chain: MKEAELNRDMARYCTDNQCVSLQPQGLGPKSAALMAPRTLRHVQVILALMVVTVIFSLLALFVVASQPWRPEWNKEPPSLLLRGSNNSGHDNHSQFVRETEMQVAIQRLRDYEENSSSCHKEVQILKYQMDNVSSLVQLLGSHLEDVNADILQTKDVLKESGALALETQALRSSLEVASADIHSLRGDLEKANAMTSQTRGLLKSSTENTSAELHVLGRGLEEAQSEIQALRGSLQSANDLSSQTQGFLQHSMDNISAQIQTVRDGMERAGEKMNSLKKELETLTAQTQKANGHLEQTDAQIQGLKAELKSTSSLNSRIEVVNGQMKDASRELQTLRRDLSDVSALKSNVQMLQSNLQRAKTEMQTLKADLQATKALTAKIQGEQNRLGALQEAVAAQKQEQKTQNQVLQLIAQNWKYFNGNFYYFSRDKKPWREAEKFCTSQGAHLASVTSQEEQAFLVQTTSSGDHWIGLTDQGTEGIWRWVDGTPFNNAQSKGFWGKNQPDNWRHRNGEREDCVHVRQQWNDMACGSSYPWVCKKSTGWSAARVG
[1]
  glycan array binding signal (z-score): -0.569
[2]
  glycan array binding signal (z-score): -0.711
[3]
  glycan array binding signal (z-score): -0.821
[4]
  glycan array binding signal (z-score): -0.818
[5]
  glycan array binding signal (z-score): -0.541
[6]
  glycan array binding signal (z-score): -0.465
[7]
  glycan array binding signal (z-score): -0.944
[8]
  glycan array binding signal (z-score): -0.825
[9]
  glycan array binding signal (z-score): -0.831
[10]
  glycan array binding signal (z-score): -0.721
[11]
  glycan array binding signal (z-score): -0.82
[12]
  glycan array binding signal (z-score): 0.241
[13]
  glycan array binding signal (z-score): -0.223
[14]
  glycan array binding signal (z-score): -0.416
[15]
  glycan array binding signal (z-score): -0.917
[16]
  glycan array binding signal (z-score): -0.61
[17]
  glycan array binding signal (z-score): -0.376
[18]
  glycan array binding signal (z-score): -0.594
[19]
  glycan array binding signal (z-score): -0.623
[20]
  glycan array binding signal (z-score): -0.463
[21]
  glycan array binding signal (z-score): -0.71
[22]
  glycan array binding signal (z-score): -0.336
[23]
  glycan array binding signal (z-score): -0.473
[24]
  glycan array binding signal (z-score): -0.608
[25]
  glycan array binding signal (z-score): -0.817
[26]
  glycan array binding signal (z-score): -0.289
[27]
  glycan array binding signal (z-score): -0.655
[28]
  glycan array binding signal (z-score): -0.663
[29]
  glycan array binding signal (z-score): -0.719
[30]
  glycan array binding signal (z-score): -0.684
[31]
  glycan array binding signal (z-score): -0.818
[32]
  glycan array binding signal (z-score): 0.022
[33]
  glycan array binding signal (z-score): -0.609
[34]
  glycan array binding signal (z-score): -0.593
[35]
  glycan array binding signal (z-score): -0.617
[36]
  glycan array binding signal (z-score): -0.27
[37]
  glycan array binding signal (z-score): -0.592
[38]
  glycan array binding signal (z-score): -0.446
[39]
  glycan array binding signal (z-score): -0.239
[40]
  glycan array binding signal (z-score): -0.375
[41]
  glycan array binding signal (z-score): -0.561
[42]
  glycan array binding signal (z-score): -0.113
[43]
  glycan array binding signal (z-score): -0.401
[44]
  glycan array binding signal (z-score): -0.597
[45]
  glycan array binding signal (z-score): -0.366
[46]
  glycan array binding signal (z-score): -0.698
[47]
  glycan array binding signal (z-score): -0.661
[48]
  glycan array binding signal (z-score): -0.697
[49]
  glycan array binding signal (z-score): -0.316
[50]
  glycan array binding signal (z-score): -0.539
[51]
  glycan array binding signal (z-score): -0.286
[52]
  glycan array binding signal (z-score): -0.101
[53]
  glycan array binding signal (z-score): -0.124
[54]
  glycan array binding signal (z-score): -0.692
[55]
  glycan array binding signal (z-score): 0.119
[56]
  glycan array binding signal (z-score): -0.25
[57]
  glycan array binding signal (z-score): 0.773
[58]
  glycan array binding signal (z-score): -0.172
[59]
  glycan array binding signal (z-score): -0.428
[60]
  glycan array binding signal (z-score): -0.706

From the supplement of paper PMC8728848
